From PubChem BioAssay AID1469 (National Center for Advancing Translational Sciences (NCATS), 2008)
“And” between values parts separate entries of the source, which are not always exact repeats. Identical values can stand only once. Screen size: about 280,000 compounds; about 180 (0.064%) were called active. The inconclusive results got no clear call from the source; some entries with a clear call stand among them for comparison. The call rests on the fitted dose curve; in most records, active means well fitted inhibition curve with a large enough effect; inconclusive means small, poorly fitted or top-dose-only effect, or effect the other way; inactive means flat fitted curve, though single readings scatter. Where the call is inconclusive, the potency comes from a doubtful curve fit.
Further: nearly all actives have a fitted effect of over 50% in size.
Potency means the concentration at half of the fitted maximal effect.
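Wherever activity change, negative = inhibition is given: plate controls were bound peptide for no effect and peptide without receptor for full effect.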

By UniProt entry, the sequences of proteins in these tests, tags left out. Where a name states a change or a piece, a line headed by the entry shows the natural chain unless it says otherwise.
UniProt P10828: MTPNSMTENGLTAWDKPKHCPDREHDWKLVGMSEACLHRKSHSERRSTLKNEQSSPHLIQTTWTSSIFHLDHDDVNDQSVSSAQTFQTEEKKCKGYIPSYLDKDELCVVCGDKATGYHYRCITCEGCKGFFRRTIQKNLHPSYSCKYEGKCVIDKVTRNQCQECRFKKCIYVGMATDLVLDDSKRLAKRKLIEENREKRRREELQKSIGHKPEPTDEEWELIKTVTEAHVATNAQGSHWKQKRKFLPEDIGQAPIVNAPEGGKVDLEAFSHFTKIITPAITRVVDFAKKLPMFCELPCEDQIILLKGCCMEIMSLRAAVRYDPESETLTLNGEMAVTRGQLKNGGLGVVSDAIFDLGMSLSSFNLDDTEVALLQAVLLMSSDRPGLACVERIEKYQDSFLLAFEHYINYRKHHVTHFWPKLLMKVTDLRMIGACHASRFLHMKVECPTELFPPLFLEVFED

What follows are compounds tested against Thyroid hormone receptor beta (Homo sapiens) (UniProt P10828) (assay: qHTS for Inhibitors of the Interaction of Thyroid Hormone Receptor and Steroid Receptor Coregulator 2). Details: TRbeta-SRC2 peptide binding, fluorescence polarization, receptor liganded with 1 µM T3; series mostly up to 106 µM; activity change, negative = inhibition: at the top concentration.
How it was run: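 Compounds were added to 0.6 uM TRb ligand-binding domain and 20 nM Texas Red-labeled SRC2 peptide in Tris buffer containing 1 uM T3, incubated 5 hr at ambient temperature, then read by fluorescence polarization.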
For `COc1cc(/C=C/C(=O)CC(=O)/C=C/c2ccc(O)c(OC)c2)ccc1O`, the Potency was inconclusive: 50.1 µM [activator, partial curve]. With `CC(=O)c1c(C(C)=O)c(C)n(-c2ccc(N)c(C)c2)c1C` the Potency was active: 22.4 µM. `O=C1C(SCCO)=C(SCCO)C(=O)c2ccccc21` was tested, and the Potency was inconclusive: 2.82 µM [inhibitor, full curve]. `COc1cc(C(=O)N2CCN=C2c2ccccc2)cc(OC)c1OC` was tested, and the Potency was inconclusive: 100 µM [inhibitor, partial curve, poor fit]. In the case of `COc1cc(C(c2c(C)[nH][nH]c2=O)c2c(C)[nH][nH]c2=O)ccc1OCc1ccc([N+](=O)[O-])cc1`, the Potency is reported as inconclusive: 70.8 µM [inhibitor, single point]. `Cc1ccc(C(=O)NC(=S)NNC(=O)CC#N)cc1` was tested, and the Potency was inconclusive: 70.8 µM [inhibitor, single point]. In the case of `CN1C(=CC=C2C=C(I)C(=O)C(I)=C2)C(C)(C)c2ccccc21`, the Potency is reported as inconclusive: 0.501 µM [activator, full curve, poor fit]. For `CN(C)c1ccc(/C=C2/C(=O)N(c3ccc([N+](=O)[O-])cc3)N=C2N2CCOCC2)cc1`, the Potency was inconclusive: 7.08 µM [inhibitor, full curve]. `CC(C)c1ccc(S(=O)(=O)c2nnn3c2nc(N2CCN(C)CC2)c2sccc23)cc1` was tested, and the Potency was inconclusive: 79.4 µM [inhibitor, single point]. In the case of `C=CC1=C(C)C2=NC1=CC1=NC(=CC3=NC(=CC4=NC(=C2)C(C)=C4CCC(=O)O)C(CCC(=O)O)=C3C)C(C=C)=C1C.[Zn]`, the Potency is reported as active: 12.6 µM. In the case of `C#CCn1c(=NC(=O)c2sc3ccccc3c2Cl)sc2cc(S(N)(=O)=O)ccc21`, the Potency is reported as inconclusive: 56.2 µM [activator, single point]. `CCOC(=O)c1c(NC(=O)c2cc(-c3cccc(OC)c3)on2)sc2c1CCCC2` was tested, and the “activity change, negative = inhibition” value was inactive: -0.535%. In the case of `Cn1c(C(=O)Nc2cccc(C(F)(F)F)c2)cc2c(=O)n3ccccc3nc21`, the Potency is reported as inconclusive: 50.1 µM [activator, single point]. `COc1ccc(-c2nc3ccc(NS(=O)(=O)c4ccc(C)cc4)cc3o2)cc1` was tested, and the “activity change, negative = inhibition” value was inactive: 3.69%. `Cc1[nH][nH]c(=O)c1C(c1c(C)[nH][nH]c1=O)c1cn(Cc2ccc(F)cc2)c2ccccc12` was tested, and the Potency was inconclusive: 20 µM [inhibitor, full curve, poor fit]. With `Cc1ccc(-c2nc3sc(CCNC(=O)c4ccc(Br)o4)c(C)n3n2)cc1` the “activity change, negative = inhibition” value was inactive: -6.92%. With `Cc1[nH][nH]c(=O)c1C(c1ccc(-c2ccc(Cl)cc2Cl)o1)c1c(C)[nH][nH]c1=O` the Potency was inconclusive: 31.6 µM [inhibitor, full curve, poor fit]. `COCCn1c(=NC(=O)C(C)(C)C)sc2cc([N+](=O)[O-])ccc21` was tested, and the “activity change, negative = inhibition” value was inactive: -7.53%. With `O=C(NCCc1ccccc1)c1cc(S(=O)(=O)N2CCOCC2)ccc1F` the “activity change, negative = inhibition” value was inactive: -5.32%. `COc1ccc(N2CCN(S(=O)(=O)CCNC(=O)C(c3ccccc3)c3ccccc3)CC2)cc1` was tested, and the “activity change, negative = inhibition” value was inactive: 1.78%. With `COc1ccc(C2SCCN2C(=S)Nc2cccc(Cl)c2)cc1` (stereo unspecified) the “activity change, negative = inhibition” value was inactive: 9.27%. For `Cc1ccc(-c2[nH]c(-c3ccc(C(=O)O)cc3)nc2-c2ccccc2)cc1`, the “activity change, negative = inhibition” value was inactive: -9.82%. In the case of `Cc1cccc(-c2nnc(C3CCN(S(=O)(=O)c4cccc(Cl)c4)CC3)o2)c1`, the “activity change, negative = inhibition” value is reported as inactive: 1.89%. With `COc1cccc(/C=N/NC(=O)Cn2nc(C)c([N+](=O)[O-])c2C)c1O` the “activity change, negative = inhibition” value was inactive: -1.33%. For `Cc1ccc(/C=N/Nc2cccc(C(=O)O)c2)s1`, the “activity change, negative = inhibition” value was inactive: -9.7%. With `CN(C)c1ccc(N2CN=C3SCC(=O)N3C2)cc1` the Potency was active: 15.8 µM. `CCOc1ccc(NC(=O)C(c2ccccn2)N(C(=O)CCl)c2ccc(F)cc2)cc1` (stereo unspecified) was tested, and the Potency was inconclusive: 25.1 µM [inhibitor, full curve]. For `CC1(C)CCC2=C(O1)c1ccccc1C(=O)C2=O`, the Potency was inconclusive: 5.01 µM [inhibitor, full curve] and inconclusive: 35.5 µM [inhibitor, partial curve]. With `CC(C)(C)NS(=O)(=O)c1cc(C(=O)Nc2sccc2C#N)ccc1Cl` the Potency was inconclusive: 56.2 µM [activator, partial curve, poor fit]. With `COc1cccc(N2CCN(C(=O)Cn3c(-c4cccs4)cc4ccccc43)CC2)c1` the Potency was inconclusive: 50.1 µM [activator, single point]. `CC(O)C#C[Si](C)(C)c1ccccc1` (stereo unspecified) was tested, and the “activity change, negative = inhibition” value was inactive: 3.12%. For `Cc1c(C2=CCN(S(=O)(=O)c3ccc(Br)cc3)CC2)c2ccccc2n1C`, the Potency was inconclusive: 10 µM [activator, full curve]. `COc1ccc(Cl)cc1-n1nnc(-c2nsc(NC(=O)c3ccccc3Cl)n2)c1C` was tested, and the Potency was inconclusive: 50.1 µM [activator, partial curve]. In the case of `C/C(=N\Nc1ccc(S(N)(=O)=O)cc1[N+](=O)[O-])c1ccc2c(c1)OCO2`, the “activity change, negative = inhibition” value is reported as inactive: 1.91%. `c1cnc(Nc2nc(-c3ccc4ccccc4c3)cs2)nc1` was tested, and the Potency was inconclusive: 3.98 µM [inhibitor, partial curve]. For `CN(C)c1ncc(S(=O)(=O)c2ccc(Cl)cc2)c(-c2ccc(Cl)cc2Cl)n1`, the “activity change, negative = inhibition” value was inactive: 1.15%. For `CCCCCN1N=C(C)CC1=O`, the Potency was inconclusive: 44.7 µM [inhibitor, partial curve]. `Cc1cc2cc(CNC(=O)c3cccc([N+](=O)[O-])c3)ccc2n1C` was tested, and the “activity change, negative = inhibition” value was inactive: -1.5%. In the case of `COc1ccc(N2CCN(CCCNC(=O)c3nnc(Cc4ccc(F)cc4)o3)CC2)cc1`, the Potency is reported as inconclusive: 10 µM [inhibitor, partial curve]. For `CCC(/C=C1\Sc2ccc(OC)cc2N1CC)=C\c1sc2ccc(OC)cc2[n+]1CCCS(=O)(=O)[O-]`, the Potency was inconclusive: 11.2 µM [activator, full curve]. `Cc1cc(C)c2nc(-c3ccccn3)cc(C(=O)Nc3ccc(S(=O)(=O)Nc4cc(C)on4)cc3)c2c1` was tested, and the Potency was inconclusive: 50.1 µM [activator, partial curve]. With `CC(N1CCOC1=O)S(=O)(=O)c1ccccc1` (stereo unspecified) the “activity change, negative = inhibition” value was inactive: -0.238%. In the case of `Cc1cc(NC(=O)CCN2C(=O)C3C4CCC(C4)C3C2=O)cc(C)c1Br` (stereo unspecified), the Potency is reported as inconclusive: 0.0794 µM [inhibitor, full curve, poor fit]. `Cn1c(=O)c2c(nc(SCC(=O)Nc3ccc(F)c(F)c3)n2Cc2ccccc2F)n(C)c1=O` was tested, and the Potency was inconclusive: 8.91 µM [inhibitor, partial curve, poor fit]. `O=C1c2cccc3cccc(c23)C(=O)N1CC1CCN(CC(O)COc2ccc3ccccc3c2)CC1` (stereo unspecified) was tested, and the “activity change, negative = inhibition” value was inactive: 0.13%. For `CCN(CC)CC(=O)n1c2c(c3ccccc31)CCCC2`, the “activity change, negative = inhibition” value was inactive: -2.28%. `COc1cc(SSc2cc(OC)cc([N+](=O)[O-])c2N)c(N)c([N+](=O)[O-])c1` was tested, and the “activity change, negative = inhibition” value was inactive: 3.76%. With `CCc1ccc(NCc2cc3ccc(OC)cc3n(CC(=O)Nc3ccc(C(C)C)cc3)c2=O)cc1` the Potency was inconclusive: 15.8 µM [inhibitor, single point]. `Cc1ccc(C2C3=C(NCCN=C3c3ccccc3)C(=O)N2c2ccccc2)cc1` (stereo unspecified) was tested, and the Potency was inconclusive: 50.1 µM [inhibitor, partial curve]. With `Cc1nn(C)c(C(=O)Nc2ccc(S(=O)(=O)NC34CC5CC(CC(C5)C3)C4)cc2)c1Br` the Potency was inconclusive: 0.005 µM [inhibitor, full curve, poor fit]. With `CCSC[C@H](NC(=O)[C@H](C)N)C(=O)N[C@@H](CC(=O)O)C(=O)N[C@H](C(=O)N[C@@H](C)C(=O)N[C@H](C(=O)N[C@@H](CSCC)C(=O)N[C@H](C(=O)N[C@H](C(=O)N[C@@H](Cc1cnc[nH]1)C(=O)N[C@@H](CCCNC(=N)N)C(=O)N[C@@H](CC(C)C)C(=O)N[C@@H](C)C(=O)NCC(=O)N[C@@H](CC(C)C)C(=O)N[C@@H](CC(C)C)C(=O)N[C@@H](CO)C(=O)N[C@@H](CCCNC(=N)N)C(=O)N[C@@H](CO)C(=O)NCC(=O)NCC(=O)N[C@H](C(=O)N[C@H](C(=O)N[C@@H](CCCCN)C(=O)N[C@@H](CC(N)=O)C(=O)N[C@@H](CC(N)=O)C(=O)N[C@@H](Cc1ccccc1)C(=O)N[C@H](C(=O)N1CCC[C@H]1C(=O)N[C@H](C(=O)N[C@@H](CC(N)=O)C(=O)N[C@H](C(=O)NCC(=O)N[C@@H](CO)C(=O)N[C@@H](CCCCN)C(=O)N[C@@H](C)C(=O)N[C@@H](Cc1ccccc1)C(N)=O)C(C)C)[C@@H](C)O)C(C)C)C(C)C)C(C)C)[C@@H](C)O)C(C)C)[C@@H](C)O)[C@@H](C)O` the “activity change, negative = inhibition” value was inactive: 0.142%. In the case of `Cn1cccc1C(C(=O)NC1CCCCC1)N(C(=O)Cc1cccs1)C1CC1` (stereo unspecified), the “activity change, negative = inhibition” value is reported as inactive: -17.2%. For `CN1C(=O)CC(Nc2cccc3cccc(N)c23)C1=O` (stereo unspecified), the Potency was inconclusive: 6.31 µM [inhibitor, full curve]. With `CCc1ccc(OCc2nnc(SCC(=O)N3CCN(c4ccccc4)CC3)o2)cc1` the Potency was inconclusive: 22.4 µM [inhibitor, single point]. For `O=C(NC(=S)N1CCN(c2ccc(Cl)cc2[N+](=O)[O-])CC1)c1ccco1`, the “activity change, negative = inhibition” value was inactive: 5.01%. With `O=C1Nc2ccccc2C(=O)C1(Cl)Cc1ccccc1` (stereo unspecified) the “activity change, negative = inhibition” value was inactive: 0.966%. `CN(CCO)c1nc(N)c2c(N)nc3c(c2c1C#N)CC(=O)N3C1CCCC1` was tested, and the Potency was inconclusive: 1.12 µM [inhibitor, full curve]. For `CCOc1cc(C#N)c(NC(=O)c2cccc(S(=O)(=O)N3CCOCC3)c2)cc1OCC`, the Potency was inconclusive: 11.2 µM [inhibitor, partial curve, poor fit]. For `Cc1ccc(/C=[N+](\[O-])c2ccc(N(C)C)cc2)c2nsnc12`, the Potency was active: 35.5 µM. For `O=C(Nc1ccc(Br)cc1)N1CCC(CN2CCCC2)CC1`, the Potency was inconclusive: 50.1 µM [activator, single point]. `O=C(Cn1c(-c2cccs2)cc2ccccc21)NCCCN1CCN(c2ccc(F)cc2)CC1` was tested, and the Potency was inconclusive: 50.1 µM [activator, single point].
